Hit rate of the full screen: of about 320,000 compounds, about 22,000 (6.9%) were called active. Inconclusive results, whose numbers are uncertain, are shown with a selection of clear calls. Calls follow the shape of the dose curve; as a rule, active = well fitted inhibition curve with a large enough effect; inconclusive = small, poorly fitted or top-dose-only effect, or another doubt; inactive = no such curve, though single readings can be large or run the other way. A potency beside an inconclusive call is a rough fit, not a confirmed value.
experiment: Primary qHTS for delayed death inhibitors of the malarial parasite plastid, 96 hour incubation; settings: P. falciparum luciferase reporter growth; series mostly up to 28.7 µM
How it was run: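 Readout is luminescence from an integrated firefly luciferase in P. falciparum. Red cells, 2% hematocrit and 0.05% parasitemia final, were cultured with compound through two parasite generations (96 hours) at 37 C, 5% CO2.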
Potency is read from the fitted curve at half-maximal effect.

Compound	Potency
Cc1[nH]c2ccccc2c1/C=N/NC(=S)NC(C)C	inconclusive: 18.5 µM [inhibitor, single point]
COc1ccc(Cl)cc1NC(=S)NNC(=O)c1cccnc1	inconclusive: 2.33 µM [inhibitor, partial curve, poor fit]
COc1ccc(C2=NS(=O)(=O)N(C)C(C(=O)NCc3ccccn3)=C2)cc1	inactive
COc1cc(NC(=S)N2CCN(S(C)(=O)=O)CC2)cc(OC)c1	inconclusive: 0.104 µM [inhibitor, full curve, poor fit]
O=C(Cc1ccc(S(=O)(=O)N2CCOCC2)s1)N1CCN(S(=O)(=O)c2cccc([N+](=O)[O-])c2)CC1	inconclusive: 8.28 µM [inhibitor, partial curve]
Cc1cc(C)c(C(=O)N2CCCC(CNC(=O)C3(c4ccc(Cl)cc4)CC3)C2)c(=O)[nH]1 (stereo not drawn)	inconclusive: 0.262 µM [inhibitor, full curve, poor fit]
CC(C)=C1Cc2ccccc2C1=O	inconclusive: 0.233 µM [inhibitor, full curve, poor fit]
Cc1cc(C(C)(C)C)cc(C)c1CC1=NCCN1	inconclusive: 10.4 µM [inhibitor, single point]
O=C(Cc1cccs1)Nc1cccc([N+](=O)[O-])c1	inconclusive: 18.5 µM [inhibitor, single point]
COc1cccc(NC(=O)NC2CCN(CC(=O)Nc3ccccc3[N+](=O)[O-])CC2)c1	inconclusive: 11.7 µM [inhibitor, partial curve, poor fit]
CCCCOC(=O)C1[C@H]2C(=O)N(Cc3cccs3)C[C@]23C=C[C@H]1O3 (stereo partly drawn)	active: 5.22 µM
CCCCC(=O)Nc1ccc(C(=O)NCCc2ccccc2)cc1	inconclusive: 10.4 µM [inhibitor, single point]
CN(CC(=O)Nc1cccc(F)c1)C(=O)Cn1cnc2c1c(=O)n(C)c(=O)n2C	inactive
CCOc1ccc(NC(C(=O)Nc2cccc(C(C)=O)c2)c2ccccc2)cc1 (stereo not drawn)	inconclusive: 18.5 µM [inhibitor, single point]
Cc1ccccc1-c1nnc(SCC(=O)NC2CCCC2)n1C	inactive
CC1CCC(C(C)C)C(OP(N)(=O)c2ccccc2)C1 (stereo not drawn)	inconclusive: 10.4 µM [inhibitor, partial curve, poor fit]
CCOc1cccc(C(=O)Nc2ccccc2N2CCN(C(=O)C(C)C)CC2)c1	active: 13.1 µM
FC(F)(F)c1cc(CCN2C(=S)NC[C@@H]2c2ccccc2)cc(C(F)(F)F)c1	inconclusive: 18.5 µM [inhibitor, single point]

A stretch taken from the entries so far, as a working copy:
Compound	Potency
Cc1[nH]c2ccccc2c1/C=N/NC(=S)NC(C)C	inconclusive: 18.5 µM [inhibitor, single point]
COc1ccc(Cl)cc1NC(=S)NNC(=O)c1cccnc1	inconclusive: 2.33 µM [inhibitor, partial curve, poor fit]
